Test results from PMC12623751.
No constants are given. Whether binding was seen depends on the method and setting. In cells and extracts the contact can be indirect. Some entries that bind do so weakly or less than the wild type.

Amino acid sequences for entries named in this document (tags omitted). A change or cut given only in a name is not applied to a line headed by its entry.
UniProt P12956: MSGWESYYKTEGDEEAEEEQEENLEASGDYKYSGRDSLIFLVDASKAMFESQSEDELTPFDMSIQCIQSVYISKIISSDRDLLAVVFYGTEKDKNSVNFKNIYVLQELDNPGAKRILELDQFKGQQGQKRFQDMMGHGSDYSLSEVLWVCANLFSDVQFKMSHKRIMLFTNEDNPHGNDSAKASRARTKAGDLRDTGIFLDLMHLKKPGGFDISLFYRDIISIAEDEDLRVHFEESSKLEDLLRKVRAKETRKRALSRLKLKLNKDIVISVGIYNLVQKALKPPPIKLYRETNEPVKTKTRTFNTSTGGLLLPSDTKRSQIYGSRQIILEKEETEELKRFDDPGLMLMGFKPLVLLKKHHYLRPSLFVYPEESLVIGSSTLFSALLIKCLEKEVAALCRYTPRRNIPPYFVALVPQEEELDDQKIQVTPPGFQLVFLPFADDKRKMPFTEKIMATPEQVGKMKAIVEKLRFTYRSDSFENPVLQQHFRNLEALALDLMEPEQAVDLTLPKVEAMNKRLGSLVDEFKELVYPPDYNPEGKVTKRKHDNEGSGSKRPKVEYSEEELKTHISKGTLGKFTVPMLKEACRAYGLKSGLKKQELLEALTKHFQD
UniProt Q9UIV1: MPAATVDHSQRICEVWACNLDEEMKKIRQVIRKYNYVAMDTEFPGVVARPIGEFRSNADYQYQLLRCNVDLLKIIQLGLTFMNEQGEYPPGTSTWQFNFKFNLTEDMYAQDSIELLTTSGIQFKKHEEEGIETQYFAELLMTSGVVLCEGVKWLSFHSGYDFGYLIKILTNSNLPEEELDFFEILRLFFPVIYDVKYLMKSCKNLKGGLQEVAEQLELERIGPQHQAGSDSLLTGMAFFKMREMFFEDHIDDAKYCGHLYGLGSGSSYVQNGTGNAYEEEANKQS
UniProt P19474: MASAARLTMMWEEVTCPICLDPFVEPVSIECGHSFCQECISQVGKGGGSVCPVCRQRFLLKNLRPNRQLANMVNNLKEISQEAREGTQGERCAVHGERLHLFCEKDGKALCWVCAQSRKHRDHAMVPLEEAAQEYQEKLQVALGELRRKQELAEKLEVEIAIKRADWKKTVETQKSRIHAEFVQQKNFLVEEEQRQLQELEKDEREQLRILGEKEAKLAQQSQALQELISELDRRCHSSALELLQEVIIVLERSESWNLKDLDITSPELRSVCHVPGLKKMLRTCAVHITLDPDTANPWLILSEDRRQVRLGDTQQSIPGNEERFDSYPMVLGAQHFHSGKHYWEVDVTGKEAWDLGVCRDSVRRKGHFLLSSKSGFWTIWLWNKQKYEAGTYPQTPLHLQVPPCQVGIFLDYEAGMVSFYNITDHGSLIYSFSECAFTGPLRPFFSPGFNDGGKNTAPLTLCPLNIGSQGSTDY

Legend:
[1] = biological target: X-ray repair cross complementing 6 (XRCC6) (human (endogenous in HCT116 and SW480)) (UniProt P12956); test: co-IP; endogenous proteins; HCT116 and SW480 lysates (IP lysis buffer), incubated at 4 °C with IgG or the antibody against the bait, then beads; immunoblot
[2] = biological target: CCR4-NOT transcription complex subunit 7 (CNOT7) (human (endogenous in HCT116 and SW480)) (UniProt Q9UIV1); test: as above
[3] = biological target: Tripartite motif containing 21 (TRIM21) (human (endogenous in HCT116 and SW480)) (UniProt P19474); test: as above
[4] = biological target: Tripartite motif containing 21 (TRIM21) (human (endogenous in HCT116 and SW480)) (UniProt P19474); test: co-IP; XRCC6-WT against XRCC6 K526R with TRIM21 (Fig. S5E, F); method, cells and bait not told in the text shown

Question: For “CCR4-NOT transcription complex subunit 7 (CNOT7) (from UniProt Q9UIV1 1-285)”, which binding [1] is on record?
Answer: binds

Question: Which binding [2] does the source give for “X-ray repair cross complementing 6 (XRCC6) (from UniProt P12956 1-609)” here?
Answer: binds

Question: And the binding [3]?
Answer: binds

Question: How did the binding [4] turn out when “XRCC6 K526R mutant (from UniProt P12956 1-609)” was run?
Answer: binds

Question: With “XRCC6-WT (overexpressed) (from UniProt P12956 1-609)” as the substance, how does the binding [4] read?
Answer: binds
